The text below walks through data of PubChem BioAssay AID1347426 (Functional Genomics Laboratory (NCATS/FGL), 2020).

The campaign covered roughly 31,000 sequences. About 1,400 (4.5%) were called active.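 Rule for the calls: active = median seed-adjusted z-score above 1 or below -1; inactive = the rest.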 The list shows a part of the results.

This test in a line: Novel Modifiers of Survival Motor Neuron (SMN) Protein: Gene Identification via Genome-wide siRNA Screen.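 Note: luminescence tracks full-length SMN protein made from the SMN2 reporter.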 The conditions noted are these: HEK293T SMN2-luciferase reporter, siRNA knockdown, 72 h; actives lie on both sides. The essentials: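 Each of three siRNAs per gene is reverse-transfected (1 pmol) into reporter HEK293T cells whose luciferase output tracks SMN protein level. After 72 h culture, ONE-Glo luminescence is control-normalized, log10-transformed and MAD-standardized; Common Seed Analysis deprioritizes seed-driven hits.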
In the case of GGCGAUGUUUCGUUGUAAATT against AFF1, the median seed-adjusted z-score was inactive: -0.0394.
With CAGUCGGUCUUUAAGGAUUTT against PYGB the figure was inactive: -0.292.
With AGAUGAUGGUUGAACAUCATT against PPP1R1A the figure was inactive: -0.529; with CCAGCGCCAUUUAUGAGGATT against HM13, inactive: 0.134.
With CCACAAGUCUAAAAUCGUATT against ATP2A2 the figure was inactive: 0.314; with GCAUUACACCUGUAGUGUATT against TOMM22, inactive: 0.486; with GCUAUGCAGUGGAUGCUUATT against GPR143, inactive: 0.366.
As to GGAGUUCCUUUGCAACCAATT against NAB1, the median seed-adjusted z-score is inactive: -0.67.
In the case of GCAUAGCCCUCAACAAGAATT against IRF6 it was active: -1.79; in that of GCCUAUAACAUGCAAACUUTT against HOXC5, inactive: 0.507.
With AGUGCAGACUCAAGACUUATT against EPOR the figure was inactive: -0.084; with GCUACGGGCUGAGAUUGAATT against KRT76, inactive: 0.726.
For the sequence GAGUAAAAGAGAUUGGAGATT against SIRPD, the median seed-adjusted z-score was inactive: -0.257.
As for GUAACAACAUCAUCCUAGATT against HSPG2, the median seed-adjusted z-score is inactive: 0.478.
In the case of GCUACUACCUGGUGGUCUATT against SLC19A1 it was inactive: 0; in that of UGAGUUCACCGACCUCAAUTT against PSCD2, inactive: -0.126.
With GGCUACAACUUAUAGAGAUTT against LRRTM2 the figure was inactive: 0.508; with CAGUUUGUAUUGAAGGGUATT against RNF150, inactive: 0.478; with CCAAAUUUGCCUAACCAGATT against RUNX2, inactive: 0.335.
As to GCUGAAGGCUUAUGAGUAUTT against KCNV2, the median seed-adjusted z-score is active: -1.13.
Regarding ACAACUUCGUCACAGAAAATT against AMBP, the median seed-adjusted z-score was inactive: -0.679.
With CCGUAACUCUAGUACAGCUTT against CREB1 the figure was inactive: 0.391.
With GCUACUCCAUUGUCACUCATT against CD300LF the figure was inactive: -0.264; with GCGUUACGCUGAGAGUAAATT against CXCL6, inactive: 0.802; with GAAAGACUCUUACCAUUUUTT against SSBP4, inactive: 0.254.
With CAGAUGUUGUGGUAGCUCATT against SIP1 the figure was inactive: -0.443; with GGAAAUCGUUUAAUCACAATT against ZNF776, inactive: -0.394.
Regarding GAUACGGUCCAGAAGCUUATT against NUF2, the median seed-adjusted z-score is inactive: -0.658.
In the case of GCACAAUACCGCAUCAGUATT against PFKL it was inactive: 0; in that of CAGAGAACCCAUUACAUCATT against HADH, active: 1.11.
With UGAGGACAAUGAUAACAGUTT against GGA3, the median seed-adjusted z-score is inactive: -0.239.
With AAACCAAGCCGAUGAAGAATT against NFYA the figure was inactive: 0.437.
With GCAAGAAAAAUCUAAGGAATT against ZNF57, the median seed-adjusted z-score was inactive: 0.
In the case of GGAGCACAGAGGCUCAGAATT against TNFRSF13B it was inactive: 0.152; in that of AGAUCUAUUUUCGAGGGAATT against UNQ9391, inactive: -0.312; in that of GGCCUACAACGAAAGUGAATT against CAMKK1, inactive: 0.
With GGACGACAAUGACAACUUUTT against FOXRED2 the figure was inactive: 0.0294; with AGCUCUACAUUGGCGAUGATT against DUPD1, inactive: -0.406.
In the case of GGAUGUUGUUUAUCGAGGATT against MED21 it was active: -1.3; in that of CCCUGAACAUACCUACUGATT against BRS3, inactive: 0.224; in that of GCAUUGACUGGUCCUAUGATT against CPA2, inactive: 0.0374.
As for GUGGAUGGAGUGAAAGUGATT against NOS1AP, the median seed-adjusted z-score was inactive: 0.00192.
In the case of GAGUCGCUUUUGAUGUUGATT against ZNF217 it was inactive: -0.872.
On to GCAUGUACCAGGUUCAGUATT against LRFN1, for which the median seed-adjusted z-score is inactive: 0.605.
In the case of UCAUUGUGGUUGGAGUUAATT against AP4S1 it was inactive: -0.498; in that of GCGUUAUGCUGACCUCUAUTT against NT5C2, inactive: -0.687; in that of GGAUCAGUAAUAUACCACATT against MTFMT, inactive: -0.0119.
As to GCAUGAGUGUUGAUAGGUATT against AGTR2, the median seed-adjusted z-score was inactive: 0.204.
With GCACCUACCUUGCAUCUAATT against HSDL2 the figure was inactive: -0.0717.
In the case of CAGAUUCAUUCAACUUUAATT against DDC it was inactive: 0.395; in that of UGCCCACUGUGCAAAUUCATT against RNF215, inactive: -0.889.
With GGUUUUCAUUGACCGGUUUTT against ABCF3 the figure was inactive: 0.0759.
With CAAUGGAACUUUAGAUUAUTT against PCDHA11, the median seed-adjusted z-score was inactive: 0.582.
Consider GGAUCCGAAGCAAAGUUGATT against MBD1, for which the median seed-adjusted z-score is inactive: 0.
In the case of GGAUAUCAAGUCGGAAAAATT against RSF1, the median seed-adjusted z-score is inactive: 0.
For GGAGGAGUGUCAAUCCAUATT against SCG5, the median seed-adjusted z-score is inactive: 0.573.
With GCACAUCUACAAGGAGAUUTT against MAPK13 the figure was inactive: -0.491.
With GCAGGAUCCUCAAGUAGUATT against NFX1, the median seed-adjusted z-score was inactive: -0.256.
In the case of GGCAAAAUCUGGACACCAUTT against TFAP4 it was inactive: -0.0515; in that of GGACAUCCCUGAGAUUGCATT against EDC4, inactive: 0; in that of CUGCAACUCUAACUAUUCATT against OMG, inactive: 0.273.
In the case of GGCCUCUUCGAUGUCCUCATT against HTR6 it was inactive: -0.463; in that of GCACAGAGCUGUCAGUGGUTT against EIF6, inactive: 0.
In the case of GAAAGACUGAUGAGAUUAUTT against TXNDC6, the median seed-adjusted z-score was inactive: 0.156.
In the case of CGCGGGAAAGUUGAACUAATT against BCL2L12 it was inactive: -0.77; in that of CCACCAUUGAAGAUGCUUATT against RIT1, inactive: -0.157; in that of CCUUGUUUCUACCAACAGUTT against HOXA6, inactive: -0.282.
In the case of GGACUAACCUUUGAGAAAUTT against KCNMB1, the median seed-adjusted z-score is inactive: -0.465.
Turning to ACAAUGAAGUGAACCGCAATT against GFER, the median seed-adjusted z-score is inactive: 0.402.
With GCUCAGCACUUAUCGAACATT against ZNF135 the figure was inactive: 0.038.
Turning to CAUUGAUCUGUUAAAGAAATT against HIPK1, the median seed-adjusted z-score was inactive: 0.69.
For the sequence ACGUAUUCCUUUCUUAUCATT against LIPC, the median seed-adjusted z-score is inactive: 0.244.
With CUUUCCGUGUGAAAUCAAATT against ZNF761 the figure was inactive: 0.291.
UCAUCUACACUGUCUUCAATT against DRD4: the median seed-adjusted z-score was inactive: -0.183.
As to CGAGGGUAUCAGAAACGUATT against UNC5C, the median seed-adjusted z-score was inactive: 0.0496.
With AGCUGAAGGUGGUUCGAGATT against TRIM9 the figure was inactive: -0.437; with AGGCCAUUCGUGAAGCUUATT against FCAR, inactive: -0.106; with GCUUGUUCCUUCAAUUAAATT against ZNF41, inactive: 0.342.
With CAUUCAAAUUGCACUGCUATT against TRAPPC4 the figure was inactive: 0; with GAACGGCAAUGUAUUCCAATT against SSR1, inactive: -0.434.
In the case of GAAUCAGACAGCGAAGUAATT against MPP5 it was inactive: 0.429; in that of CCAACGACUGGAUUCCAGATT against SERPIND1, inactive: 0.133; in that of CGAUAUAUUGGAUAAUCGATT against BIRC6, inactive: 0.0785.
With CGUCGCGCCCUGUACAUAATT against GPR35, the median seed-adjusted z-score was active: -1.46.
In the case of GCUCUAAUCUUACUAGGCATT against ZNF10 it was inactive: 0; in that of ACACUUCGUUAUUCCUCUATT against TAAR5, inactive: 0.573; in that of GCUUAGGUCUUGCUCUCAATT against YWHAE, active: 1.38.
GCAUCCGCACUUCCACUAATT against SERINC3: the median seed-adjusted z-score was inactive: 0.29.
In the case of CAUCCGGAAGGAGCCCUUUTT against ALDH3B1 it was inactive: 0.148; in that of GGAUACAUGAAGACACUUUTT against CD180, inactive: 0; in that of CCGUGAAGCUGAUGCGUGATT against ATP1A3, inactive: 0.329.
In the case of CAAACCUCCCAGUAUCUAUTT against UBE2J2 it was inactive: -0.341.
In the case of GCAAGCUGCUGAUCGAGUUTT against KAT5 it was inactive: 0.32; in that of UGAGUUCUUUAGGACCGAATT against MFAP3L, active: 1.03; in that of GGUUCCCUGUACCAGCAAATT against GALNT4, inactive: 0.419.
In the case of GGUUCUUUCUUGGUCCAAATT against SLC33A1, the median seed-adjusted z-score is inactive: 0.2.
With GGAUAUGCUUCUAGGCCUATT against DDI1 the figure was inactive: 0.259; with CCCAUUUCGGACUCCAAAATT against IRX3, inactive: -0.285; with CCUAUGAUGAGGUCCAAGATT against CBLC, inactive: -0.726.
With GAACUAGGAGAUACAAUAUTT against ELOVL6 the figure was inactive: 0.742.
Consider CGGUGGGAUGGGAACGAAATT against DRAP1, for which the median seed-adjusted z-score is active: 1.08.
Consider CACCAAAUCUAAGGACCUATT against NEBL, for which the median seed-adjusted z-score was inactive: 0.0769.
In the case of GAGCACCCGUAUCAUUUAUTT against TPI1 it was inactive: 0.447; in that of GGCUUGGUAUCAUACACUATT against LRAT, inactive: 0.345.
In the case of CAAAGGCAUCGAGUACUUATT against CAMKK2 it was inactive: -0.121; in that of GCCUGUCUGUUGUUGGACATT against SLC7A6, inactive: -0.0877; in that of GUUACAUUAUGAACGGUAUTT against NSF, inactive: -0.0728.
With GCUCAUUUGCGAACGGAUUTT against DUT the figure was inactive: -0.0833; with AGAUGAUCGGAGGCCUGUATT against HK3, inactive: 0.0759.
